# Measurements from the supplement of paper PMC6411743.
# Amino acid sequences for entries named in this document (tags omitted). A change or cut given only in a name is not applied to a line headed by its entry.
# UniProt P16455, whole entry: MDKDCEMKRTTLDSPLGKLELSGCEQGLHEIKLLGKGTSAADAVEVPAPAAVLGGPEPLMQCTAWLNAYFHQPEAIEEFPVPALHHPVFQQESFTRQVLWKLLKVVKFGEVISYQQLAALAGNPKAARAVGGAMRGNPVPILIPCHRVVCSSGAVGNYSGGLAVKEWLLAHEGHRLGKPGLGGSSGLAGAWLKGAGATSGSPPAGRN
# UniProt P22307: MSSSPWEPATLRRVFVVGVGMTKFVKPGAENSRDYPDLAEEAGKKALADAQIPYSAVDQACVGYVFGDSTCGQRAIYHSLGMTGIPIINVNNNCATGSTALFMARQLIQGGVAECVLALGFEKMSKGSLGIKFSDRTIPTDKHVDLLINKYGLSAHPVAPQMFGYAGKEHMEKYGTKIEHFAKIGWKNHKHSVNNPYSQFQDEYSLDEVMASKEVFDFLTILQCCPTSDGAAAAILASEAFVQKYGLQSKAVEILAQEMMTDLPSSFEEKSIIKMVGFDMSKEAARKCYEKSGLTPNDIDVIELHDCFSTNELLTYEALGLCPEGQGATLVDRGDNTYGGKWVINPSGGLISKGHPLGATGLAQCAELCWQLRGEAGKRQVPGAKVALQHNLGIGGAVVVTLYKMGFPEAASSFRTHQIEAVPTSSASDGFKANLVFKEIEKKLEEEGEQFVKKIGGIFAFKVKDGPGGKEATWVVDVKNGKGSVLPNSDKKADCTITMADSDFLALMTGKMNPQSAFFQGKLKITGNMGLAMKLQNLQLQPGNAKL
# UniProt P20339: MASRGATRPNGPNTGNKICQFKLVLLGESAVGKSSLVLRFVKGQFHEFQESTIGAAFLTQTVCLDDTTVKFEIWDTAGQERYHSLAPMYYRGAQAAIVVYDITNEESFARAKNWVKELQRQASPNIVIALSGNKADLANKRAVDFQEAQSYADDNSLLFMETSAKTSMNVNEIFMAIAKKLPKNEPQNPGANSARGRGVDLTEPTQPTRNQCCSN
# UniProt P09693, whole entry: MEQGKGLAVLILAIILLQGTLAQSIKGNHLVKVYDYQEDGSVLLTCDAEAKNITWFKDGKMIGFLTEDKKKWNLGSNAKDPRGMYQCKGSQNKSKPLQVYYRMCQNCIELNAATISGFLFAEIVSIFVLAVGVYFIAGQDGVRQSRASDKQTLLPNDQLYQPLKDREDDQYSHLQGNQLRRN
# UniProt P10244: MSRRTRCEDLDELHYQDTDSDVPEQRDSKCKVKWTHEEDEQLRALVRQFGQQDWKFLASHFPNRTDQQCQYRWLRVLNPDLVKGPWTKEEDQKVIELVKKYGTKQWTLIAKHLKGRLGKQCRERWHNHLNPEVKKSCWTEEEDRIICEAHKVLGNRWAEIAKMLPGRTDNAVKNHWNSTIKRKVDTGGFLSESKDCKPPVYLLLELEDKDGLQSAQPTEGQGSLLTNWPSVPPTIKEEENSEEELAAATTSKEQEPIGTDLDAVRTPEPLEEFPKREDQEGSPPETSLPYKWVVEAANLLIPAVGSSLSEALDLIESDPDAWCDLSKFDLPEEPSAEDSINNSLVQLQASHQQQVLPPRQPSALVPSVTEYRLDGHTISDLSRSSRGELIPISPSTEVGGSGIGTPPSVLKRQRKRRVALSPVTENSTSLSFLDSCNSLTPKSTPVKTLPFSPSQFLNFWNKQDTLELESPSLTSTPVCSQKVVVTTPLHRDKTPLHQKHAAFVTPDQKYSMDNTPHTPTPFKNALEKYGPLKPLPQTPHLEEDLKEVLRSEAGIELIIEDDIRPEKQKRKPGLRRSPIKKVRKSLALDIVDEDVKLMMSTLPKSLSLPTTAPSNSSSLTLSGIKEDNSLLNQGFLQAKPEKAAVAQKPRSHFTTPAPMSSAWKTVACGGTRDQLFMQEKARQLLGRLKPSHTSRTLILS
# UniProt P16383: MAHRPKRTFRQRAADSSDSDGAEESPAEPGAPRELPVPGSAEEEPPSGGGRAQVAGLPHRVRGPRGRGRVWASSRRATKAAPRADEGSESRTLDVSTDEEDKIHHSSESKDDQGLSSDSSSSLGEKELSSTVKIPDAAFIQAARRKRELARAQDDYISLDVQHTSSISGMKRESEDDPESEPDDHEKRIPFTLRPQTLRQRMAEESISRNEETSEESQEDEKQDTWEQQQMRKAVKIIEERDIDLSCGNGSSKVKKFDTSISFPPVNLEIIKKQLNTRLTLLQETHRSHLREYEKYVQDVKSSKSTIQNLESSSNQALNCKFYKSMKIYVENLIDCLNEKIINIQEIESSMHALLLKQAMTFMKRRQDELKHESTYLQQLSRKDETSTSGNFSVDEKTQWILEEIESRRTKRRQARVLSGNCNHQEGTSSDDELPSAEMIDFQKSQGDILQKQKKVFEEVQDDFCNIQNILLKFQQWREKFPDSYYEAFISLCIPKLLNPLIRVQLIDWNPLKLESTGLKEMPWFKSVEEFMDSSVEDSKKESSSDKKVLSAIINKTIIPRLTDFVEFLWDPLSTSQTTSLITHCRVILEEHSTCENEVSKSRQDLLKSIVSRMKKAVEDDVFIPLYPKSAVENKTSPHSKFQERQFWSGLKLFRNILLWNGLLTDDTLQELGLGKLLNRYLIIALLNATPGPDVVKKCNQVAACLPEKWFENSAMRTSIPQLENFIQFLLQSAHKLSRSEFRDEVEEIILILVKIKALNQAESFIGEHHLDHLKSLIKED
# UniProt P25705: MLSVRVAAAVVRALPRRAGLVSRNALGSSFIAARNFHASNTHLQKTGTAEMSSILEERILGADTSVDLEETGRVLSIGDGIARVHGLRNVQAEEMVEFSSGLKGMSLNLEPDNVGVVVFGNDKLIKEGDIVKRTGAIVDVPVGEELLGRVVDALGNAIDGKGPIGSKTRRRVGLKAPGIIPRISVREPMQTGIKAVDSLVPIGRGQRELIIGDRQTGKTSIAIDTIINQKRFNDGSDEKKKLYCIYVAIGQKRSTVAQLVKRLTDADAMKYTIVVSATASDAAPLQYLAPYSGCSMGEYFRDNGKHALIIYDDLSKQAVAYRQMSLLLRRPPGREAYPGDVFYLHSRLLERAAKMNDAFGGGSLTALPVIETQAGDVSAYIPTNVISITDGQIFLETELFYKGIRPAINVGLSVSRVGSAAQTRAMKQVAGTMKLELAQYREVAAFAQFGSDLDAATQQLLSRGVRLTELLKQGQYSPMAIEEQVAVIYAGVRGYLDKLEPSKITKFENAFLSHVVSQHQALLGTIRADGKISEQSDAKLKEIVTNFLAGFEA
# UniProt P24666: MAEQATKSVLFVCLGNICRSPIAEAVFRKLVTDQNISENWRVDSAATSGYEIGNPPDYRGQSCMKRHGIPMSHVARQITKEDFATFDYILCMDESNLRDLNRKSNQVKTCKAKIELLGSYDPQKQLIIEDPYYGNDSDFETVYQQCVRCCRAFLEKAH
# UniProt P17812: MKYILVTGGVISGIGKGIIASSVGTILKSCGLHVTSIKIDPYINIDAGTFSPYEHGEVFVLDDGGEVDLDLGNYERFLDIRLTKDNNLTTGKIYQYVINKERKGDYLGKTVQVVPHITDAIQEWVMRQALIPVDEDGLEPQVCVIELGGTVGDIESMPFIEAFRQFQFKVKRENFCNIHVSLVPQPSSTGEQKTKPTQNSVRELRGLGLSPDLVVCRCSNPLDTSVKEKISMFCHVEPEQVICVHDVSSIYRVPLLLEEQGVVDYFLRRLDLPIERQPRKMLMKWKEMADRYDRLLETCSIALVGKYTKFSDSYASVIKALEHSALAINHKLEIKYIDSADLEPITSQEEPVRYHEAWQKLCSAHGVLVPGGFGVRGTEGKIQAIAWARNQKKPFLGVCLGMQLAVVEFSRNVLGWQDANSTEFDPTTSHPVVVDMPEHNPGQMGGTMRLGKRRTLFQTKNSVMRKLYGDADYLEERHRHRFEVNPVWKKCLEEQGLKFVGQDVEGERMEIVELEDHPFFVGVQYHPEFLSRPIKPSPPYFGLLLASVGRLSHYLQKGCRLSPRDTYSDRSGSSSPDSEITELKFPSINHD
# UniProt P23786: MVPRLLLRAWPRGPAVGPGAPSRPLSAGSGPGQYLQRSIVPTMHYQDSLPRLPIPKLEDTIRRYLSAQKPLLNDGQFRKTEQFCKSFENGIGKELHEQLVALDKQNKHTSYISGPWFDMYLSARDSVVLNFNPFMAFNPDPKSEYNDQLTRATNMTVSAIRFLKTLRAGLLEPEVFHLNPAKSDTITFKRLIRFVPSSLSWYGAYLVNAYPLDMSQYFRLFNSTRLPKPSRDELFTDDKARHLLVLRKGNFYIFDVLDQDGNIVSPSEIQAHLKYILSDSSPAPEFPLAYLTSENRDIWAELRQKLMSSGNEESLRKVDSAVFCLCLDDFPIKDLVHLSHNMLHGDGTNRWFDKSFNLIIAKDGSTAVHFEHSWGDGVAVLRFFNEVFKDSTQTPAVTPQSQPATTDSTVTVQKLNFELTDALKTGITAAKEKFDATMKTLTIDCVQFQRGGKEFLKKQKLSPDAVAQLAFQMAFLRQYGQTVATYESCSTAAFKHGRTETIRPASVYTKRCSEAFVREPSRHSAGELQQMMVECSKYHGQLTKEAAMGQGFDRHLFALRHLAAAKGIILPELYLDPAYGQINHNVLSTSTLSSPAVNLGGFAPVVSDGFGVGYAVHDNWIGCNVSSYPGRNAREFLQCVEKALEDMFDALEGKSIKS
# UniProt P19525: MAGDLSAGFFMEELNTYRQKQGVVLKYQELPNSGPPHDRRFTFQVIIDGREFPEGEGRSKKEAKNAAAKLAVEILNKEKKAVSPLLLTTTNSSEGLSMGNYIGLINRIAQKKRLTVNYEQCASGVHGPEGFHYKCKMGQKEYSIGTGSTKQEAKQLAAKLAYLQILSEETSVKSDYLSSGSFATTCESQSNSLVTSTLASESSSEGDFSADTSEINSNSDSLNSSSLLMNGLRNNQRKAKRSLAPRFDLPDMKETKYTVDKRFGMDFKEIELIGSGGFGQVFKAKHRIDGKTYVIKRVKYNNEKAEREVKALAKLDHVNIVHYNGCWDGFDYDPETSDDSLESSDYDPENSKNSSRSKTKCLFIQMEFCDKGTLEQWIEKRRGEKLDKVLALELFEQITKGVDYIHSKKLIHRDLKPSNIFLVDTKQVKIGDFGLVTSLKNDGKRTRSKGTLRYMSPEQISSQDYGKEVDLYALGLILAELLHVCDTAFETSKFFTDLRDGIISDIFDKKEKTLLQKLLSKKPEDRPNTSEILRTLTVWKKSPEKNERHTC
# UniProt P23284: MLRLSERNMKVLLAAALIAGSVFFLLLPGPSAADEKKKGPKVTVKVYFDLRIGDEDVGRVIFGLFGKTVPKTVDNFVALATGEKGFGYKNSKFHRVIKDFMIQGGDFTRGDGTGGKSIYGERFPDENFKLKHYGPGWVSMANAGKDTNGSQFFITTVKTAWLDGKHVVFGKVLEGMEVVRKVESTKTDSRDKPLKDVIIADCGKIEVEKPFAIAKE
# UniProt P10109: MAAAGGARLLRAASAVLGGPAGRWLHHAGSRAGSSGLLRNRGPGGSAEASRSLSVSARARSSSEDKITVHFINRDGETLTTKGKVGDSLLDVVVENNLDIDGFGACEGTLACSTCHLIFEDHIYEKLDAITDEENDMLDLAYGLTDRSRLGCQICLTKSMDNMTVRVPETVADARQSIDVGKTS
# UniProt P08236: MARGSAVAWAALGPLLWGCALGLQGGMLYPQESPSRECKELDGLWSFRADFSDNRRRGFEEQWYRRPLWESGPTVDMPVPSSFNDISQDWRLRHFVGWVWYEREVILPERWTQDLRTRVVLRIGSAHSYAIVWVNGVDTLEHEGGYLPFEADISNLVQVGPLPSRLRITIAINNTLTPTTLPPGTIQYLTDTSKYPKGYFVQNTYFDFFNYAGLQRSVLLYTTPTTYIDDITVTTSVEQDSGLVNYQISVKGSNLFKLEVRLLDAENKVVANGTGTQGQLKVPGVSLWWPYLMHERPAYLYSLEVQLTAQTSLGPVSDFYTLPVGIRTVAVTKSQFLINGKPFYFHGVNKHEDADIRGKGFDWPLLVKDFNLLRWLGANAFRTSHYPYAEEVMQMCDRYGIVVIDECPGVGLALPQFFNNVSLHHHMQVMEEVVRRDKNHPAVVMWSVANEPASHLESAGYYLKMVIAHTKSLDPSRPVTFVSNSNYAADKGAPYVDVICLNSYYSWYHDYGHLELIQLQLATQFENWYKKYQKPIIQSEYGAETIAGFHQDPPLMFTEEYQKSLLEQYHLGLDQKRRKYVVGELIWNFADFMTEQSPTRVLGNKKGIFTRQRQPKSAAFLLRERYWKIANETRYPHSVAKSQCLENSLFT
# UniProt P09012, whole entry: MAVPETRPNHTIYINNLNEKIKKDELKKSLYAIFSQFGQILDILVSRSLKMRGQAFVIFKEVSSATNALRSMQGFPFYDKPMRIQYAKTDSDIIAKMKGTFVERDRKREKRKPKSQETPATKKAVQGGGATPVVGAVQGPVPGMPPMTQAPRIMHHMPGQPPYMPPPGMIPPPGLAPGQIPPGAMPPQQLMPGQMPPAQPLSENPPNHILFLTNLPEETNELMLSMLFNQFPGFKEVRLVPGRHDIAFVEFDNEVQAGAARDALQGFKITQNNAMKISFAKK
# ± gives the standard deviation of the averaged measurements. Some of the results follow.
# Compound: Nc1nc2c(ncn2[C@@H]2O[C@H](COP(=O)(O)OP(=O)(O)OP(=O)(O)O)[C@@H](O)[C@H]2O)c(=O)[nH]1 [guanosine triphosphate]
# Experiment: NP40-soluble protein abundance relative to vehicle (solubility fold change) (ratio); higher = more soluble protein in presence of GTP
# Procedure, shortened: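 Each value is a fold change relative to the detergent-processed vehicle, calculated per replicate from vsn-normalised intensities. Jurkat crude lysate received eight concentrations (0.1 to 10 mM) for 10 min at room temperature and 3 min at 37 °C, then was solubilised in 0.8% NP40 with benzonase (60 min, 4 °C). The ultracentrifuged supernatant was TMT-labelled and run by LC-MS/MS in three independent experiments.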
Target,NP40-soluble protein abundance (concentration: 0.1mM),NP40-soluble protein abundance (concentration: 0.5mM),NP40-soluble protein abundance (concentration: 1mM),NP40-soluble protein abundance (concentration: 2mM),NP40-soluble protein abundance (concentration: 4mM),NP40-soluble protein abundance (concentration: 6mM),NP40-soluble protein abundance (concentration: 8mM),NP40-soluble protein abundance (concentration: 10mM)
MGMT (UniProt P16455),0.912 ± 0.037,0.896 ± 0.027,1 ± 0.027,0.977 ± 0.045,0.955 ± 0.033,0.945 ± 0.039,0.918 ± 0.088,0.984 ± 0.034
SP100 (UniProt P23497),0.94 ± 0.066,0.917 ± 0.034,0.907 ± 0.041,0.882 ± 0.066,0.869 ± 0.056,0.888 ± 0.044,0.918 ± 0.059,0.927 ± 0.068
UniProt P22307 and related entries,0.893 ± 0.025,0.88 ± 0.053,0.92 ± 0.032,0.894 ± 0.064,0.879 ± 0.065,0.891 ± 0.066,0.866 ± 0.097,0.893 ± 0.075
UniProt P25054 and related entries,1.07 ± 0.038,1.083 ± 0.007,1.16 ± 0.1,1.14 ± 0.12,1.07 ± 0.086,1.12 ± 0.12,1.147 ± 0.0081,1.15 ± 0.062
UniProt P20339 and related entries,0.999 ± 0.016,1.08 ± 0.04,0.875 ± 0.057,0.937 ± 0.059,0.865 ± 0.034,0.85 ± 0.024,0.82 ± 0.13,0.828 ± 0.14
UniProt P09693 and related entries,0.874 ± 0.059,0.882 ± 0.057,0.913 ± 0.058,0.888 ± 0.1,0.869 ± 0.076,0.905 ± 0.099,0.859 ± 0.092,0.9 ± 0.071
PGAM1 (UniProt P18669),0.946 ± 0.072,0.946 ± 0.06,0.936 ± 0.076,0.888 ± 0.072,0.889 ± 0.088,0.88 ± 0.069,0.88 ± 0.087,0.856 ± 0.075
ATP2A2 (UniProt P16615),1.02 ± 0.017,1.02 ± 0.037,0.956 ± 0.022,0.969 ± 0.018,0.964 ± 0.035,0.952 ± 0.036,0.951 ± 0.026,0.911 ± 0.023
GALT (UniProt P07902),0.957 ± 0.091,0.933 ± 0.14,0.94 ± 0.081,0.927 ± 0.1,0.939 ± 0.12,0.905 ± 0.12,0.925 ± 0.039,0.888 ± 0.12
UniProt P10244 and related entries,1.11 ± 0.17,1.2 ± 0.14,1.24 ± 0.2,1.21 ± 0.013,1.24 ± 0.14,1.27 ± 0.24,1.36 ± 0.27,1.35 ± 0.22
P15531-2|P22392-2|Q32Q12 (UniProt Q32Q12+P22392+P15531),0.983 ± 0.029,0.946 ± 0.049,0.903 ± 0.045,0.909 ± 0.068,0.9 ± 0.017,0.878 ± 0.04,0.822 ± 0.06,0.839 ± 0.025
UniProt P16383 and related entries,0.979 ± 0.015,1.05 ± 0.059,1.03 ± 0.038,1.06 ± 0.019,1.088 ± 0.0062,1.06 ± 0.0047,1.09 ± 0.032,1.11 ± 0.044
UniProt P20290 and related entries,0.907 ± 0.069,0.875 ± 0.1,0.991 ± 0.056,0.966 ± 0.11,1.02 ± 0.095,1.05 ± 0.12,1.06 ± 0.12,1.08 ± 0.081
UniProt P07737 and related entries,0.925 ± 0.13,0.909 ± 0.095,0.927 ± 0.13,0.858 ± 0.096,0.866 ± 0.12,0.842 ± 0.099,0.857 ± 0.11,0.862 ± 0.11
UniProt P25705 and related entries,0.981 ± 0.022,1.04 ± 0.057,0.998 ± 0.062,1.01 ± 0.087,0.986 ± 0.088,1.03 ± 0.11,1.01 ± 0.11,0.995 ± 0.098
HIST1H1B (UniProt P16401),0.956 ± 0.023,0.937 ± 0.02,1.09 ± 0.037,1.15 ± 0.014,1.22 ± 0.042,1.272 ± 0.012,1.22 ± 0.039,1.73 ± 0.19
UniProt P13807 and related entries,1.18 ± 0.19,1.25 ± 0.44,1.28 ± 0.61,1.34 ± 0.74,1.25 ± 0.61,1.1 ± 0.59,1.05 ± 0.52,1.02 ± 0.59
UniProt P24666 and related entries,0.894 ± 0.1,0.829 ± 0.063,0.853 ± 0.1,0.84 ± 0.097,0.824 ± 0.083,0.802 ± 0.067,0.813 ± 0.1,0.841 ± 0.092
GNAI3 (UniProt P08754),0.993 ± 0.13,1.06 ± 0.093,0.911 ± 0.071,0.946 ± 0.053,0.931 ± 0.036,0.932 ± 0.027,0.813 ± 0.033,0.89 ± 0.13
UniProt P17812,1.04 ± 0.085,1.03 ± 0.089,0.924 ± 0.05,0.916 ± 0.096,0.904 ± 0.077,0.883 ± 0.076,0.864 ± 0.041,0.819 ± 0.086
CPT2 (UniProt P23786),0.997 ± 0.02,1.02 ± 0.033,0.901 ± 0.011,0.915 ± 0.038,0.865 ± 0.011,0.882 ± 0.031,0.847 ± 0.016,0.827 ± 0.044
SRF (UniProt P11831),0.972 ± 0.1,0.904 ± 0.23,0.964 ± 0.25,0.908 ± 0.16,0.922 ± 0.15,0.932 ± 0.11,0.923 ± 0.18,0.965 ± 0.16
UniProt P19525 and related entries,0.968 ± 0.043,1.03 ± 0.046,0.937 ± 0.048,0.975 ± 0.014,0.978 ± 0.029,0.972 ± 0.027,0.962 ± 0.067,0.954 ± 0.073
PPIB (UniProt P23284),0.896 ± 0.11,0.915 ± 0.088,0.897 ± 0.099,0.872 ± 0.099,0.895 ± 0.11,0.89 ± 0.1,0.919 ± 0.11,0.905 ± 0.11
FDX1 (UniProt P10109),0.939 ± 0.088,0.94 ± 0.098,0.875 ± 0.065,0.872 ± 0.094,0.87 ± 0.11,0.857 ± 0.074,0.843 ± 0.11,0.859 ± 0.12
UniProt P21675 and related entries,1.09 ± 0.048,1.152 ± 0.0092,1.2 ± 0.099,1.24 ± 0.1,1.22 ± 0.12,1.21 ± 0.12,1.26 ± 0.15,1.26 ± 0.13
UniProt P08236 and related entries,1.1 ± 0.051,1.05 ± 0.1,1 ± 0.044,1.05 ± 0.043,0.997 ± 0.096,0.979 ± 0.087,1 ± 0.059,0.99 ± 0.11
SNRPA (UniProt P09012),0.9 ± 0.024,0.893 ± 0.052,0.974 ± 0.017,0.926 ± 0.068,0.912 ± 0.052,0.924 ± 0.05,0.915 ± 0.039,0.901 ± 0.033
GAA (UniProt P10253),0.977 ± 0.014,0.955 ± 0.046,0.924 ± 0.02,0.9345 ± 0.0053,0.913 ± 0.035,0.902 ± 0.012,0.934 ± 0.05,0.898 ± 0.022
UniProt P16298 and related entries,1.01 ± 0.033,0.969 ± 0.029,0.985 ± 0.063,0.955 ± 0.036,0.959 ± 0.066,0.912 ± 0.092,0.974 ± 0.033,0.958 ± 0.062

# Whole records as entered above:
# UniProt P25705 and related entries is listed with NP40-soluble protein abundance (concentration: 0.1mM): 0.981 ± 0.022; NP40-soluble protein abundance (concentration: 0.5mM): 1.04 ± 0.057; NP40-soluble protein abundance (concentration: 1mM): 0.998 ± 0.062; NP40-soluble protein abundance (concentration: 2mM): 1.01 ± 0.087; NP40-soluble protein abundance (concentration: 4mM): 0.986 ± 0.088; NP40-soluble protein abundance (concentration: 6mM): 1.03 ± 0.11; NP40-soluble protein abundance (concentration: 8mM): 1.01 ± 0.11; NP40-soluble protein abundance (concentration: 10mM): 0.995 ± 0.098
# SRF (UniProt P11831) is listed with NP40-soluble protein abundance (concentration: 0.1mM): 0.972 ± 0.1; NP40-soluble protein abundance (concentration: 0.5mM): 0.904 ± 0.23; NP40-soluble protein abundance (concentration: 1mM): 0.964 ± 0.25; NP40-soluble protein abundance (concentration: 2mM): 0.908 ± 0.16; NP40-soluble protein abundance (concentration: 4mM): 0.922 ± 0.15; NP40-soluble protein abundance (concentration: 6mM): 0.932 ± 0.11; NP40-soluble protein abundance (concentration: 8mM): 0.923 ± 0.18; NP40-soluble protein abundance (concentration: 10mM): 0.965 ± 0.16
